Laboratory results reported in patent EP3912994A1.
No constants are given. Whether binding was seen depends on the method and setting. Binding seen in cells or lysates may run through a third protein. These calls come from enrichment with a bait or labelling near it, and not all partners need be listed.

Chains of the proteins cited; added tags and fusions are not shown. Residues count along the entry.
UniProt Q80YX1, residues 23-2110: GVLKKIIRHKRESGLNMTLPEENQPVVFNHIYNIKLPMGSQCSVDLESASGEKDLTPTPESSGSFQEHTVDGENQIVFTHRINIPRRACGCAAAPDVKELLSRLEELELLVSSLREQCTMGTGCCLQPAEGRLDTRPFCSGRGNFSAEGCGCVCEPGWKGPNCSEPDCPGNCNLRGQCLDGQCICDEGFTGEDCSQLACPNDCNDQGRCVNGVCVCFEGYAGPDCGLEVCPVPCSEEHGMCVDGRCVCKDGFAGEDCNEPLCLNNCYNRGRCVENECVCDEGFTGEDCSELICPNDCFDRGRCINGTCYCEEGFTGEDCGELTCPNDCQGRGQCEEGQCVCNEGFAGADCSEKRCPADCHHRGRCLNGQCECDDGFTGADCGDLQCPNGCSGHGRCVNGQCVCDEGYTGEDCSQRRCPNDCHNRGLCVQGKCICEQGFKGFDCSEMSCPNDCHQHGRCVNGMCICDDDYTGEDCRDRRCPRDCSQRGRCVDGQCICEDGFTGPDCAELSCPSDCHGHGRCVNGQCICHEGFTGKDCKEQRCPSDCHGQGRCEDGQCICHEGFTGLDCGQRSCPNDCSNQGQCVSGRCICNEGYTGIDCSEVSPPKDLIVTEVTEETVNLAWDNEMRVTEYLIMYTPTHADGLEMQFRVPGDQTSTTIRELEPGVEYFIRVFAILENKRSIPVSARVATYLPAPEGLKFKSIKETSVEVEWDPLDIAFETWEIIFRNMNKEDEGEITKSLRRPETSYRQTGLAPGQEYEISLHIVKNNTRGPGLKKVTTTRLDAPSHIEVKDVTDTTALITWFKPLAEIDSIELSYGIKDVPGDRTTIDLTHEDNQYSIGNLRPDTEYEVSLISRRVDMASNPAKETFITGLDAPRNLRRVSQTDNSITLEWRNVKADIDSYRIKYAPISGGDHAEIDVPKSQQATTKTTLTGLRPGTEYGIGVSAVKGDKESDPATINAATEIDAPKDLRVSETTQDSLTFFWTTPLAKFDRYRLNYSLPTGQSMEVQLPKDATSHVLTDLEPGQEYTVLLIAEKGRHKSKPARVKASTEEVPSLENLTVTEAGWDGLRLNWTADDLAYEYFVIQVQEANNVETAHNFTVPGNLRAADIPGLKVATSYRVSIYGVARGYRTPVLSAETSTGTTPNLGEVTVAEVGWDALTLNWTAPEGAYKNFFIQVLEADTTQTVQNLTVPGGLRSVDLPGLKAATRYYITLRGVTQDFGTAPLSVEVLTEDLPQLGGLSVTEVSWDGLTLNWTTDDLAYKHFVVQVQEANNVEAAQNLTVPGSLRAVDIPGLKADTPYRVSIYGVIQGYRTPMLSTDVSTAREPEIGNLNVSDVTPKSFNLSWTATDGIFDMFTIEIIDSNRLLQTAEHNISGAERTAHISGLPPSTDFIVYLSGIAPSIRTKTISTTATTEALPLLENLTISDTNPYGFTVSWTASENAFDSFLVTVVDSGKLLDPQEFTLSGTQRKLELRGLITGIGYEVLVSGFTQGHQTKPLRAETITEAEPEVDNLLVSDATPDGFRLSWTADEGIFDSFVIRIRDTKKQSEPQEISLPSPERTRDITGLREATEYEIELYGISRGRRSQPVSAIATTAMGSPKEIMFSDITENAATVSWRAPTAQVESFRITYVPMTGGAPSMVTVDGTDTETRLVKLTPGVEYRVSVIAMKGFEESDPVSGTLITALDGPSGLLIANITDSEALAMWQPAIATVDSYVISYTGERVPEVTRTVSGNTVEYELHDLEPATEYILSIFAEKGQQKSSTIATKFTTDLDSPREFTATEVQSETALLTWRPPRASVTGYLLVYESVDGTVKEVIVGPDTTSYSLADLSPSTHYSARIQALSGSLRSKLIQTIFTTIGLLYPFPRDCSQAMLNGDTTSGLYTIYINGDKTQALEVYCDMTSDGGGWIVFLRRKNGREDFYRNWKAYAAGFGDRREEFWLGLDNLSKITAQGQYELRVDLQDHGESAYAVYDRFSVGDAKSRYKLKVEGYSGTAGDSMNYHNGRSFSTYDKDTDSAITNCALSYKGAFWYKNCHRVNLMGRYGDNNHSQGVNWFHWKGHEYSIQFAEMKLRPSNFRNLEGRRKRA

B1: Midkine (ligand, UniProt P12025 23-140, looked up)
chain: KKKEKVKKGSECSEWTWGPCTPSSKDCGMGFREGTCGAQTQRVHCKVPCNWKKEFGADCKYKFESWGACDGSTGTKARQGTLKKARYNAQCQETIRVTKPCTSKTKSKTKAKKGKGKD
B2: Nidogen-1 (protein, UniProt P10493 29-1245, looked up)
chain: LNRQELFPFGPGQGDLELEAGDDVVSPSLELIGELSFYDRTDITSVYVTTNGIIAMSEPPATEYHPGTFPPSFGSVAPFLADLDTTDGLGNVYYREDLSPFIIQMAAEYVQRGFPEVSFQPTSVVVVTWESVAPYGGPSSSPAEEGKRNTFQAVLASSNSSSYAIFLYPEDGLQFFTTFSKKDESQVPAVVGFSKGLVGFLWKSNGAYNIFANDRESIENLAKSSNAGHQGVWVFEIGSPATAKGVVSADVNLDLDDDGADYEDEDYDLVTSHLGLEDVATPSPSHSPRRGYPDPHNVPRILSPGYEATERPRGVPTERTRSFQLPAERFPQHHPQVIDVDEVEETGVVFSYNTGSQQTCANNRHQCSVHAECRDYATGFCCRCVANYTGNGRQCVAEGSPQRVNGKVKGRIFVGSSQVPVVFENTDLHSYVVMNHGRSYTAISTIPETVGYSLLPLAPIGGIIGWMFAVEQDGFKNGFSITGGEFTRQAEVTFLGHPGKLVLKQQFSGIDEHGHLTISTELEGRVPQIPYGASVHIEPYTELYHYSSSVITSSSTREYTVMEPDQDGAAPSHTHIYQWRQTITFQECAHDDARPALPSTQQLSVDSVFVLYNKEERILRYALSNSIGPVRDGSPDALQNPCYIGTHGCDSNAACRPGPGTQFTCECSIGFRGDGQTCYDIDECSEQPSRCGNHAVCNNLPGTFRCECVEGYHFSDRGTCVAAEDQRPINYCETGLHNCDIPQRAQCIYMGGSSYTCSCLPGFSGDGRACRDVDECQHSRCHPDAFCYNTPGSFTCQCKPGYQGDGFRCMPGEVSKTRCQLEREHILGAAGGADAQRPTLQGMFVPQCDEYGHYVPTQCHHSTGYCWCVDRDGRELEGSRTPPGMRPPCLSTVAPPIHQGPVVPTAVIPLPPGTHLLFAQTGKIERLPLERNTMKKTEAKAFLHIPAKVIIGLAFDCVDKVVYWTDISEPSIGRASLHGGEPTTIIRQDLGSPEGIALDHLGRTIFWTDSQLDRIEVAKMDGTQRRVLFDTGLVNPRGIVTDPVRGNLYWTDWNRDNPKIETSHMDGTNRRILAQDNLGLPNGLTFDAFSSQLCWVDAGTHRAECLNPAQPGRRKVLEGLQYPFAVTSYGKNLYYTDWKTNSVIAMDLAISKEMDTFHPHKQTRLYGITIALSQCPQGHNYCSVNNGGCTHLCLPTPGSRTCRCPDNTLGVDCIERK
B3: Heterogeneous nuclear ribonucleoprotein M (protein, UniProt Q9D0E1 2-729, looked up)
chain: AAGVEAAAEVAATEPKMEEESGAPCVPSGNGAPGPKGEERPTQNEKRKEKNIKRGGNRFEPYSNPTKRYRAFITNIPFDVKWQSLKDLVKEKVGEVTYVELLMDAEGKSRGCAVVEFKMEESMKKAAEVLNKHSLSGRPLKVKEDPDGEHARRAMQKVMATTGGMGMGPGGPGMINIPPSILNNPNIPNEIIHALQAGRLGSTVFVANLDYKVGWKKLKEVFSMAGVVVRADILEDKDGKSRGIGIVTFEQSIEAVQAISMFNGQLLFDRPMHVKMDERALPKGDFFPPERPQQLPHGLGGIGMGLGPGGQPIDANHLSKGIGMGNLGPAGMGMEGIGFGINKIGGMEGPFGGGMENMGRFGSGMNMGRINEILSNALKRGEIIAKQGGGGAGGSVPGIERMGPGIDRISGAGMERMGAGLGHGMDRVGSEIERMGLVMDRMGSVERMGSSIERMGPLGLDHMASSIERMGQTMERIGSGVERMGAGMGFGLERMAAPIDRVGQTIERMGSGVERMGPAIERMGLSMDRMVPTGMGASLERMGPVMDRMATGLERMGANNLERMGLERMGANSLERMGLERMGANSLERMGPAMGPALGAGIERMGLAMGGAGGASFDRAIEMERGNFGGSFAGSFGGAGGHAPGVARKACQIFVRNLPFDFTWKMLKDKFNECGHVLYADIKMENGKSKGCGVVKFESPEVAERACRMMNGMKLSGREIDVRIDRNA
B4: Matrilin-4 (protein, UniProt O89029 22-624, looked up)
chain: QLQSAGPRCYNGPLDLVFMIDSSRSVRPFEFETMRQFLVGLLRSLDVGLNATRVGVIQYSSQVQSVFPLGAFSRREDMERAIRAVVPLAQGTMTGLAIQYAMNVAFSEAEGARPSEERVPRVLVIVTDGRPQDRVAEVAAQARARGIEIYAVGVQRADVGSLRTMASPPLDQHVFLVESFDLIQEFGLQFQGRLCGKDLCAELVHGCQHLCVNAPGTFYCACNSGYKLAPDNKNCLALDLCAEGTHGCEHLCVNSVDSYFCRCRAGFALQQDQRSCRAIDYCSFGNHSCQHECVSTLAGPQCRCREGHDLLPDGRSCRVRDFCNGVDHGCEFQCVSEGLSFHCLCPEGRRLQADGKSCDRCREGHVDLVLLVDGSKSVRPQNFELVKRFVNQIVDFLDVSPEGTRVGLVQFSSRVRTEFPLGRYGTAAEVKQAVLAVEYMERGTMTGLALRHMVEHSFSEAQGARPRDLNVPRVGLVFTDGRSQDDISVWAARAKEEGIVMYAVGVGKAVEEELREIASEPSELHVSYSPDFSTMTHLLENLKGSICPEEGIGAGTELRSPCECESLVEFQGRTLGALESLTQNLARLTERLEELENQLASRK
B5: Glypican-4 (protein, UniProt P51655 19-529, looked up)
chain: SLLAAELKSKSCSEVRRLYVSKGFNKNDAPLYEINGDHLKICPQDYTCCSQEMEEKYSLQSKDDFKTVVSEQCNHLQAIFASRYKKFDEFFKELLENAEKSLNDMFVKTYGHLYMQNSELFKDLFVELKRYYVAGNVNLEEMLNDFWARLLERMFRLVNSQYHFTDEYLECVSKYTEQLKPFGDVPRKLKLQVTRAFVAARTFAQGLAVARDVVSKVSVVNPTAQCTHALLKMIYCSHCRGLVTVKPCYNYCSNIMRGCLANQGDLDFEWNNFIDAMLMVAERLEGPFNIESVMDPIDVKISDAIMNMQDNSVQVSQKVFQGCGPPKPLPAGRISRSISESAFSARFRPYHPEQRPTTAAGTSLDRLVTDVKEKLKQAKKFWSSLPSTVCNDERMAAGNENEDDCWNGKGKSRYLFAVTGNGLANQGNNPEVQVDTSKPDILILRQIMALRVMTSKMKNAYNGNDVDFFDISDESSGEGSGSGCEYQQCPSEFEYNATDHSGKSANEKADS
B6: Galectin-3-binding protein (protein, UniProt Q07797 19-577, looked up)
chain: TEDGDMRLVNGASANEGRVEIFYRGRWGTVCDNLWNLLDAHVVCRALGYENATQALGRAAFGPGKGPIMLDEVECTGTESSLASCRSLGWMVSRCGHEKDAGVVCSNDTTGLHILDLSGELSDALGQIFDSQQGCDLFIQVTGQGYEDLSLCAHTLILRTNPEAQALWQVVGSSVIMRVDAECMPVVRDFLRYFYSRRIEVSMSSVKCLHKLASAYGATELQDYCGRLFATLLPQDPTFHTPLDLYAYARATGDSMLEDLCVQFLAWNFEPLTQSESWSAVPTTLIQALLPKSELAVSSELDLLKAVDQWSTETIASHEDIERLVEQVRFPMMLPQELFELQFNLSLYQDHQALFQRKTMQALEFHTVPVEVLAKYKGLNLTEDTYKPRLYTSSTWSSLVMASTWRAQRYEYNRYNQLYTYGYGSVARYNSYQSFQTPQHPSFLFKDKQISWSATYLPTMQSCWNYGFSCTSNELPVLGLTTSSYSNPTIGYENRVLILCGGYSVVDVTSFEGSKAPIPTALDTNSSKTPSLFPCASGAFSSFRVVIRPFYLTNSTDMV
B7: Lactadherin (protein, UniProt P21956 23-463, looked up)
chain: ASGDFCDSSLCLNGGTCLTGQDNDIYCLCPEGFTGLVCNETERGPCSPNPCYNDAKCLVTLDTQRGDIFTEYICQCPVGYSGIHCETETNYYNLDGEYMFTTAVPNTAVPTPAPTPDLSNNLASRCSTQLGMEGGAIADSQISASSVYMGFMGLQRWGPELARLYRTGIVNAWTASNYDSKPWIQVNLLRKMRVSGVMTQGASRAGRAEYLKTFKVAYSLDGRKFEFIQDESGGDKEFLGNLDNNSLKVNMFNPTLEAQYIKLYPVSCHRGCTLRFELLGCELHGCSEPLGLKNNTIPDSQMSASSSYKTWNLRAFGWYPHLGRLDNQGKINAWTAQSNSAKEWLQVDLGTQRQVTGIITQGARDFGHIQYVASYKVAHSDDGVQWTVYEEQGSSKVFQGNLDNNSHKKNIFEKPFMARYVRVLPVSWHNRITLRLELLGC
B8: Protein NDNF (protein, UniProt Q8C119 20-568, looked up)
chain: QKLPTRDEELFQMQIRDKEFFHDSSVIPDGAEVSSYLFRDTPRRYFFMVEEDNTPLSVTVTPCDAPLEWKLSLQELHEGSSADGSGDPELLDQQKQQMTDVEGTELFSYKGNDVEYFLSSSSPSGLYQLELLSTEKDTHFKVYATTTPESDQPYPELPYDPRVDVTSFGRTTVTLAWKPSPTASILKQPIEYCVVINKEHNFKSLCAAETKMNADDAFMVAPKPGLDFNPFDFAHFGFPTDNLGKDRSLLAKPSPKVGRHVYWRPKVDIQKICIGNKNIFTVSDLKPDTQYYFDVFMVNTNTNMSTAYVGAFVRTKEEAKQKTVELKDGRVTDVFVKRKGKKFLRFAPVSSHQKVTFFIHSCMDAVQVQVRRDGRLLLSQNVEGIRQFQLRGKPKGKYLIRLKGNRKGASKLKILATTRPSKHAFPSLPEDTRIKAFDKLRTCSSVTVAWLGTQERRKFCIYRKEVDGNYSEDQKRREQNQCLGPDTRKKSEKVLCKYFHSQNLQKAVTTETIRDLQPGKSYLLDVYVVGHGGHSVKYQSKIVKTRKVC

What follows are binders tested against murine strep-tagged TNC (mTNC) (mouse) (UniProt Q80YX1) (assay: co-purification with recombinant mTNC, 1 M NaCl eluate, mass spectrometry).

binding, binds:
B1, B2, B3, B4, B5, B6, B7, B8
